In paper PMC6275281:
These are yes or no findings as the source states them, for the method shown. For some assays here: Binding seen in cells or lysates may run through a third protein. Some binding calls cover weakened binding; strength is not graded here. For some assays here: Where a sequence is shown, tags or fusion partners need not be part of it.

The chains behind the UniProt entries cited, without tags or fusion partners.
UniProt Q9GZX5: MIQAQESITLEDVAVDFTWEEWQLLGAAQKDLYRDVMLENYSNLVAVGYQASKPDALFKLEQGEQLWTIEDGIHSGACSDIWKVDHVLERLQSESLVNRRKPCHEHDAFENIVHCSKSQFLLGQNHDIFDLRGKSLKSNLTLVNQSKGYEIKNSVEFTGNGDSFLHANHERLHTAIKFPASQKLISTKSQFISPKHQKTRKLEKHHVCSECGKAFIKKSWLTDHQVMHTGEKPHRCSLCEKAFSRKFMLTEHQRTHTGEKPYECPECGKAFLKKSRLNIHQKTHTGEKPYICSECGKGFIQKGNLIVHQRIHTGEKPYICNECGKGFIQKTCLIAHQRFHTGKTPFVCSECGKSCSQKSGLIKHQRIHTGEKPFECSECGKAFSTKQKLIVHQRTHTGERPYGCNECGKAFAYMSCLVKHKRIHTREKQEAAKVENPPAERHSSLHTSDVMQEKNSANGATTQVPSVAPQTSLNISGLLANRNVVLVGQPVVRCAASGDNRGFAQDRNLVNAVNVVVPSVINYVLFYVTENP

Experiments:
[1] = biological target: T1, ZNF121 (pGBKT7-ZNF121), zinc finger protein 121 (human) (UniProt P58317); assay: two-hybrid; cotransformation of Y2HGold yeast cells with pGBKT7 and pGADT7 plasmids; QDO/X/A plates, 30 °C, 4 days
T1 sequence: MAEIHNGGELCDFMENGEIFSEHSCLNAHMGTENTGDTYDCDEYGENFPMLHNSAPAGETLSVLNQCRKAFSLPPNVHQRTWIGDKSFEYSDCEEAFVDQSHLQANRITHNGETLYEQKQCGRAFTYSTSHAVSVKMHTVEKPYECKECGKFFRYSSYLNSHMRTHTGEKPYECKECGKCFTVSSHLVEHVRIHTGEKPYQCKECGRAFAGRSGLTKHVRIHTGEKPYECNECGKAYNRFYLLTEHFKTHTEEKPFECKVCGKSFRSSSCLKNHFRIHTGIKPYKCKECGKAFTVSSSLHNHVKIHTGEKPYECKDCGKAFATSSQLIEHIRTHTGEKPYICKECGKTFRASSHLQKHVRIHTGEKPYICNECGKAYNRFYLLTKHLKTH

[2] = biological target: T2, FLAG-ZNF121 (pCI-FLAG-ZNF121) (human) (UniProt P58317); assay: co-IP; transfected 293T cells lysed 24 h later (150 mM NaCl, 50 mM Tris/HCl pH 7.4, 1% NP-40, 10% glycerin, 1 mM EDTA); overnight with anti-FLAG M2 affinity gel, anti-c-Myc magnetic beads or agarose-conjugated anti-GFP; western blot
T2 sequence: T1 sequence

Substance | binding [1] | binding [2]
ZBRK1 (pGADT7-ZBRK1), zinc finger and BRCA1-interacting protein with a KRAB domain 1 (from UniProt Q9GZX5 1-532) | binds | –
Myc-ZBRK1 (pCI-Myc-ZBRK1) (from UniProt Q9GZX5 1-532) | – | binds
